Results from PMC7898745.
No constants are given. Whether binding was seen depends on the method and setting. Binding seen in cells or lysates may run through a third protein. Some results given as binding are weak or reduced against the parent protein; the word gives no strength.

By UniProt entry, the sequences of proteins in these tests, tags left out.
UniProt P28347: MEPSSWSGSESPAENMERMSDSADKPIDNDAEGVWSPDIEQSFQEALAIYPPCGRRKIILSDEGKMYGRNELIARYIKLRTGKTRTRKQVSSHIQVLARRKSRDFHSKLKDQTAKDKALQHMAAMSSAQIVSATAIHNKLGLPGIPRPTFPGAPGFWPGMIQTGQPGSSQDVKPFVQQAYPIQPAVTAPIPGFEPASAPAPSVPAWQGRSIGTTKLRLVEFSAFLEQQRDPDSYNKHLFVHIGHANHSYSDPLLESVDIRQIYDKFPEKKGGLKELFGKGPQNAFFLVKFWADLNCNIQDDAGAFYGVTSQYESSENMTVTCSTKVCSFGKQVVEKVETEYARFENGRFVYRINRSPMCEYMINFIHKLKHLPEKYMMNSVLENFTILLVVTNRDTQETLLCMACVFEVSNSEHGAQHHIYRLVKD

Target: TEAD1 (human (endogenous in HGC27)) (UniProt P28347)
Test: co-IP; HGC27 cells; 500 ug protein with 2 ug primary antibody at 4 C for 4 h, Protein A/G PLUS agarose beads overnight at 4 C; detected by Western blot

B1: SNAI2 (protein, UniProt O43623 1-268)
chain: MPRSFLVKKHFNASKKPNYSELDTHTVIISPYLYESYSMPVIPQPEILSSGAYSPITVWTTAAPFHAQLPNGLSPLSGYSSSLGRVSPPPPSDTSSKDHSGSESPISDEEERLQSKLSDPHAIEAEKFQCNLCNKTYSTFSGLAKHKQLHCDAQSRKSFSCKYCDKEYVSLGALKMHIRTHTLPCVCKICGKAFSRPWLLQGHIRTHTGEKPFSCPHCNRAFADRSNLRAHLQTHSDVKKYQCKNCSKTFSRMSLLHKHEESGCCVAH
  binding: binds
